# Drug screen on melanoma cell lines: apoptosis marker

Data from the primary screen of doi:10.1371/journal.pone.0140310, rounded.

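Human melanoma cells were exposed to a pair of drugs for 72 h in 1,536-well plates and read by automated microscopy after fixing and staining. The read-out is the fraction of cleaved-PARP-positive nuclei, in % of that fraction in the DMSO control; 200 means twice the control level of this apoptosis marker. Every drug was used at one fixed concentration, the higher of two screened. These are primary screening values without error estimates. The marker varies much from line to line, for technical or biological reasons.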 This is part of the screen, not chosen by result. An entry leaves out what has no value listed here. A dash means that no value is listed here.

Compounds and concentrations:
PLX4720, 0.4 µM: CCCS(=O)(=O)Nc1ccc(F)c(C(=O)c2c[nH]c3ncc(Cl)cc23)c1F
GW0742, 10 µM: Cc1cc(SCc2sc(-c3ccc(C(F)(F)F)c(F)c3)nc2C)ccc1OCC(=O)O
dovitinib, 0.5 µM: CN1CCN(c2ccc3nc(-c4c(N)c5c(F)cccc5[nH]c4=O)[nH]c3c2)CC1
temozolomide, 10 µM: Cn1nnc2c(C(N)=O)ncn2c1=O
crizotinib, 1 µM: C[C@@H](Oc1cc(-c2cnn(C3CCNCC3)c2)cnc1N)c1c(Cl)ccc(F)c1Cl
etoposide, 0.1 µM: COc1cc([C@@H]2c3cc4c(cc3[C@@H](O[C@@H]3O[C@@H]5CO[C@@H](C)O[C@H]5[C@H](O)[C@H]3O)[C@H]3COC(=O)[C@H]23)OCO4)cc(OC)c1O
tozasertib, 0.03 µM: Cc1cc(Nc2cc(N3CCN(C)CC3)nc(Sc3ccc(NC(=O)C4CC4)cc3)n2)n[nH]1
KU-0063794, 0.1 µM: COc1ccc(-c2ccc3c(N4CCOCC4)nc(N4C[C@@H](C)O[C@@H](C)C4)nc3n2)cc1CO
decitabine, 0.5 µM: Nc1ncn([C@H]2C[C@H](O)[C@@H](CO)O2)c(=O)n1

| # | Combination | WM1745 | 501mel | C32 | MeWo | A375 | COLO 800 | SK-MEL-28 | COLO 792 | WM451Lu | SK-MEL-2 | UACC-257 | A101D |
|---|---|---|---|---|---|---|---|---|---|---|---|---|---|
| 1 | tozasertib + GW0742 | - | - | 100 | 119 | 61.8 | 157 | 222 | 38.4 | 135 | - | 91.2 | 305 |
| 2 | decitabine + etoposide | 118 | - | 96.8 | 133 | 74.2 | 63.7 | 85.0 | 122 | 128 | 366 | 85.5 | 279 |
| 3 | decitabine + PLX4720 | 80.7 | - | 96.3 | 192 | 233 | 226 | 147 | 130 | 208 | 84.9 | 62.7 | 93.3 |
| 4 | etoposide + crizotinib | 127 | - | 97.0 | 169 | 65.6 | 139 | 59.4 | 106 | 295 | 440 | 31.4 | 39.7 |
| 5 | KU-0063794 + etoposide | - | 91.0 | 89.2 | 26.5 | 260 | 48.5 | 118 | 124 | 149 | 217 | 70.0 | 92.7 |
| 6 | PLX4720 + crizotinib | 121 | - | 201 | 123 | 126 | 150 | 146 | 66.9 | 398 | 126 | 40.0 | 181 |
| 7 | KU-0063794 + GW0742 | 110 | 77.6 | 76.4 | 55.3 | 50.8 | 311 | 167 | 23.9 | 91.6 | 85.0 | 56.8 | 135 |
| 8 | PLX4720 + dovitinib | 160 | - | 67.6 | 274 | 447 | 144 | 90.5 | 352 | 72.4 | 140 | 29.6 | 136 |
| 9 | temozolomide + crizotinib | 152 | - | 148 | 103 | 51.4 | 221 | 144 | 265 | 98.5 | 154 | 151 | 92.7 |
| 10 | decitabine + KU-0063794 | - | 162 | 141 | 123 | 105 | 127 | 89.2 | 54.6 | 251 | 173 | 103 | 119 |
| 11 | crizotinib + tozasertib | 173 | - | 181 | 139 | 95.3 | 241 | 43.9 | 170 | 137 | 147 | 102 | 49.1 |
| 12 | KU-0063794 + tozasertib | - | 89.5 | 98.8 | 231 | 45.4 | 149 | 216 | 143 | 96.7 | 93.2 | 60.1 | 195 |
| 13 | dovitinib + tozasertib | 126 | - | 118 | 430 | 81.1 | 237 | 276 | 416 | 97.5 | 564 | 129 | 93.7 |
| 14 | dovitinib + etoposide | 194 | - | 432 | 351 | 183 | 150 | 268 | 150 | 314 | 236 | 57.6 | 100 |
| 15 | temozolomide + decitabine | 80.4 | - | 121 | 113 | 42.2 | 219 | 213 | 132 | 92.1 | 34.9 | 57.1 | 327 |
| 16 | etoposide + temozolomide | - | - | 103 | 119 | 95.9 | 98.1 | 323 | 115 | 74.8 | 332 | 37.7 | 71.9 |
| 17 | GW0742 + temozolomide | 110 | 66.3 | 229 | 55.5 | 70.1 | 220 | 728 | 97.3 | 48.8 | 32.7 | 45.7 | 55.3 |
| 18 | etoposide + tozasertib | 315 | - | 215 | 207 | 78.4 | 257 | 136 | 228 | 88.3 | 244 | 41.8 | 272 |
| 19 | decitabine + tozasertib | 165 | - | 143 | 250 | 143 | 119 | 172 | 157 | 126 | 101 | 127 | 104 |
| 20 | dovitinib + GW0742 | - | - | 142 | 268 | 92.0 | 158 | 169 | 54.6 | 172 | 476 | 40.1 | 132 |
| 21 | crizotinib + GW0742 | - | 149 | 162 | 127 | 37.0 | 81.2 | 135 | 68.3 | 153 | 105 | 21.2 | 179 |
| 22 | KU-0063794 + dovitinib | - | 151 | 91.1 | 76.1 | 65.1 | 58.2 | 122 | 53.6 | 76.6 | 64.2 | 37.0 | 72.0 |
| 23 | KU-0063794 + temozolomide | 99.7 | 164 | 181 | 76.1 | 95.8 | 44.0 | 429 | 203 | 143 | 42.7 | 17.0 | 197 |
| 24 | PLX4720 + KU-0063794 | - | 83.5 | 197 | 121 | 187 | 87.8 | 142 | 225 | 420 | 117 | 53.7 | 326 |
| 25 | tozasertib + PLX4720 | 147 | - | 113 | 132 | 165 | 133 | 151 | 138 | 80.5 | 92.2 | 41.3 | 117 |
| 26 | decitabine + dovitinib | 123 | - | 43.7 | 404 | 386 | 157 | 62.9 | 223 | 184 | 317 | 141 | 50.3 |
| 27 | dovitinib + crizotinib | 225 | - | 181 | 262 | 80.4 | 74.3 | 182 | 168 | 558 | 290 | 162 | 205 |
| 28 | decitabine + GW0742 | - | 115 | 96.8 | 599 | 39.2 | 63.9 | 157 | 126 | 299 | 76.4 | 139 | 67.1 |
| 29 | temozolomide + PLX4720 | 93.6 | - | 112 | 126 | 275 | 81.8 | 252 | 178 | 120 | 100 | 46.9 | 92.1 |
| 30 | PLX4720 + GW0742 | - | 186 | 92.7 | 60.0 | 234 | 120 | 216 | 68.5 | 389 | 97.1 | 94.4 | 71.7 |
| 31 | crizotinib + decitabine | 122 | - | 53.9 | 115 | 96.3 | 78.6 | 209 | 161 | 149 | 105 | 276 | 89.5 |
| 32 | temozolomide + dovitinib | 171 | - | 34.3 | 388 | 157 | 48.3 | 521 | 186 | 962 | 268 | 48.2 | 107 |

Once more, the final 4:

{"combination": "temozolomide + PLX4720", "WM1745": 93.6, "C32": 112, "MeWo": 126, "A375": 275, "COLO 800": 81.8, "SK-MEL-28": 252, "COLO 792": 178, "WM451Lu": 120, "SK-MEL-2": 100, "UACC-257": 46.9, "A101D": 92.1}
{"combination": "PLX4720 + GW0742", "501mel": 186, "C32": 92.7, "MeWo": 60.0, "A375": 234, "COLO 800": 120, "SK-MEL-28": 216, "COLO 792": 68.5, "WM451Lu": 389, "SK-MEL-2": 97.1, "UACC-257": 94.4, "A101D": 71.7}
{"combination": "crizotinib + decitabine", "WM1745": 122, "C32": 53.9, "MeWo": 115, "A375": 96.3, "COLO 800": 78.6, "SK-MEL-28": 209, "COLO 792": 161, "WM451Lu": 149, "SK-MEL-2": 105, "UACC-257": 276, "A101D": 89.5}
{"combination": "temozolomide + dovitinib", "WM1745": 171, "C32": 34.3, "MeWo": 388, "A375": 157, "COLO 800": 48.3, "SK-MEL-28": 521, "COLO 792": 186, "WM451Lu": 962, "SK-MEL-2": 268, "UACC-257": 48.2, "A101D": 107}